Source: PubChem BioAssay AID1117319 (Southern Research Institute, 2015)
Several values for one entry are separate records, joined by “and”; a condition that tells them apart may be missing. Identical values can stand only once. In all, about 260,000 compounds went through this assay and about 1,500 (0.58%) were called active. Inconclusive means that the source gave no clear call. Such entries were picked first, then a sample of the others.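 The calls were made as follows: active = inhibition above a set limit at one or more doses, reproduced on every date tested; inconclusive = results disagree between test dates, or hit never tested in dose response; inactive = the rest.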

Chains of the proteins cited; added tags and fusions are not shown. Lines headed by an entry give the natural chain unless they say otherwise; changes in a name come on top.
UniProt P69720: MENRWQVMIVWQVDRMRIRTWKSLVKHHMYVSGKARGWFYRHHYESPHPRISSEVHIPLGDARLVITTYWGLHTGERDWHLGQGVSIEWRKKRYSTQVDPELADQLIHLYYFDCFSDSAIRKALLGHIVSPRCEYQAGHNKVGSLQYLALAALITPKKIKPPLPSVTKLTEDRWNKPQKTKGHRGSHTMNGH
UniProt P69721: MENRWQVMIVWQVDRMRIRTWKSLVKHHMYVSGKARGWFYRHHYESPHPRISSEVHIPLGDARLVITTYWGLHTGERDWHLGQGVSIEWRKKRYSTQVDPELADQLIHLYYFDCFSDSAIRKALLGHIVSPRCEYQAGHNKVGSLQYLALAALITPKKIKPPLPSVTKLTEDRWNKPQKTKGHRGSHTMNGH
UniProt P69722: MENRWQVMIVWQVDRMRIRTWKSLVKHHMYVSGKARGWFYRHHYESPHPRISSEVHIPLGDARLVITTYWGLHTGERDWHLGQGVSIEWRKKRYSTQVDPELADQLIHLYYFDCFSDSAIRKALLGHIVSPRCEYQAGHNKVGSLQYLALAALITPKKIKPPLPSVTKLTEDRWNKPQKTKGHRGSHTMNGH
UniProt P69723: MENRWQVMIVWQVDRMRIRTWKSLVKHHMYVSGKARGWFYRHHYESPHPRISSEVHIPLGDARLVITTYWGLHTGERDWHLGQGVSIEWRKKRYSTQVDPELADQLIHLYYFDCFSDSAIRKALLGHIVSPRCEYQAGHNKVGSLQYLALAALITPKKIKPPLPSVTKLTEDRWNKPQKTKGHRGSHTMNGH
UniProt Q9HC16: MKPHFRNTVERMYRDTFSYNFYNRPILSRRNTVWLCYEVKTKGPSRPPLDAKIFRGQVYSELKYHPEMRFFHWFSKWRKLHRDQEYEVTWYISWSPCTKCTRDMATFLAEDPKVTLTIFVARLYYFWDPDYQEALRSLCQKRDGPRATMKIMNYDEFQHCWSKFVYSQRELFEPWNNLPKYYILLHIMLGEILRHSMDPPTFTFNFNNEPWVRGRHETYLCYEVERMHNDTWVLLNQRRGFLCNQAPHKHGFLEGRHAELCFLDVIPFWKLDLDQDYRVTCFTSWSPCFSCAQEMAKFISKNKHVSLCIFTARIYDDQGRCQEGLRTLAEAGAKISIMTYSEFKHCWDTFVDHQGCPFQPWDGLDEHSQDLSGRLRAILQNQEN

These compounds were tested against Virion infectivity factor (Human immunodeficiency virus type 1 group M subtype B (isolate BH10)) + Virion infectivity factor (Human immunodeficiency virus type 1 group M subtype B (isolate BRU/LAI)) + Virion infectivity factor (Human immunodeficiency virus type 1 group M subtype B (isolate PCV12)) + Virion infectivity factor (Human immunodeficiency virus type 1 group M subtype B (isolate HXB2)) + DNA dC->dU-editing enzyme APOBEC-3G (Homo sapiens) (UniProt P69720+P69721+P69722+P69723+Q9HC16) (assay: inhibitors of Vif binding to APOBEC3G peptide, primary screen, biochemical, TR-FRET, GST-Vif 1-94, biotin-A3G peptide, dose response retest (AID 1117319;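 also: Vif residues 1-94 fused to GST binding biotinylated APOBEC3G peptide 110-148; 0% = full assay without inhibitor and 100% = GST in place of GST-Vif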)). Conditions: stronger effect = higher value.

| SMILES | inhibition |
| --- | --- |
| Cc1cc(-c2ccco2)n(CC(=O)O)n1 | inactive: 5.45% |
| Cc1cc(F)ccc1S(=O)(=O)Nc1ccccc1C(=O)Nc1ccccc1-c1nc2ccccc2[nH]1 | inactive: 16.7% |
| C/C(Cn1cnc([N+](=O)[O-])n1)=N\NC(=O)c1ccc(O)cc1O | inconclusive: 42.2% |
| CC[C@H](CO)NCCN[C@H](CC)CO | inconclusive: 34.9% |
| COc1c(C)cc(C(=O)C2CCCN(C(=O)c3cc(C)nc(C)n3)C2)cc1C (stereo not given) | inactive: -12.6% |
| Cc1ccc(/C=c2/sc3nnc(-c4ccccc4Cl)n3c2=O)o1 | inconclusive: 37.6% |
| Cc1n[nH]c(C)c1S(=O)(=O)Nc1ccc2c(c1)OCCO2 | inconclusive: 55.2% |
| O=C(NC(=S)Nc1ccc2c(c1)OCCO2)c1ccco1 | inconclusive: 61.8% |
| O=S(=O)(NCc1ccc2c(c1)OCO2)c1c(F)cc(F)cc1Br | inconclusive: 39.4% |
| CCN(CC)S(=O)(=O)c1cccc(C(=O)OCC(=O)NC(C)c2ccccc2)c1 (stereo not given) | inconclusive: 34.1% |
| Cc1ccc(S(=O)(=O)Oc2ccc(/C=C3/N=C(c4ccccc4)OC3=O)cc2)cc1 | inconclusive: 50.2% |
| Cc1ccc(Nc2nc(N)nc(CSc3nnc(-c4ccncc4)o3)n2)cc1 | inconclusive: 34.1% |
| CCCN(CC(=O)Nc1ccccc1C)C(=O)C1CCN(C(=O)Nc2ccccc2)CC1 | inactive: -0.04% |
| Nc1cc(OCC(F)(F)F)cc(OCC(F)(F)F)c1 | inactive: 2.81% |
| CCC1=Nc2ccccc2NC2=C1C(=O)CCC2 | inconclusive: 48.9% |
| CCN(CC)CCNC(=O)CNC(=S)N(CCCN1CCOCC1)Cc1cccs1 | inconclusive: 52.1% |
| COc1ccc(-c2noc(CCC(=O)N3CCN(c4cccc(C(F)(F)F)c4)CC3)n2)cc1 | inactive: 22.9% and inactive: -0.11% |
| NC(=O)C1(N2CCCCC2)CCN(C(=O)c2ccccc2)CC1 | inconclusive: 43.7% |
| CC(=O)N1c2c(cc(Br)cc2S(=O)(=O)NCC2COc3ccccc3O2)CC1C (stereo not given) | inconclusive: 47.1% |
| COC(=O)CCC(=O)OC1(C)C(=O)C=C2C=C(C3CC3)N(c3ccccc3)C=C2C1=O (stereo not given) | inactive: 21.6% |
| COc1ccc(N(C)S(=O)(=O)c2ccc(C)cc2)c([N+](=O)[O-])c1 | inconclusive: 40.2% |
| CCOC(=O)c1ccccc1NC(=O)c1ccc2nccnc2c1 | inconclusive: 37.8% |
| CCOc1cc(C(=O)NC(C)Cc2cccs2)cc(OCC)c1OCC (stereo not given) | inconclusive: 55.5% |

| SMILES | inhibition |
| --- | --- |
| CCC(Sc1nc(N)cc(=O)[nH]1)C(=O)NC(C(=O)OC)c1ccccc1 (stereo not given) | inconclusive: 35.8% |
| CC(OC(=O)Cc1coc2ccc3ccccc3c12)C(=O)NC(N)=O (stereo not given) | inconclusive: 43.6% |
| O=C(CCC1CCCCC1)NCCN1C2=NC[C@H](Cc3ccccc3)N2C[C@H]1Cc1ccc(O)cc1 | inconclusive: 33.9% |
| Cc1ccc(-c2cc(C)nc3nc(N)nn23)cc1 | inconclusive: 46.5% |
| N#Cc1c(N(CCO)CCO)nc(N)c2c(N)nc3c(c12)CC(=O)N3Cc1cccs1 | inconclusive: 37% |
| CC(=O)c1ccc(-c2ccc(C(=O)N(C)Cc3nc4ccccc4c(=O)[nH]3)o2)cc1 | inconclusive: 43% |
| CCN1CCN(Cc2nc3c(c(=O)n(C)c(=O)n3C)n2Cc2ccccc2Cl)CC1 | inconclusive: 36.1% |
| CCNc1nc(ON=C(C)C)nc(N(C)C)n1 | inactive: -7.57% |
| COCCN1C(=O)N[C@@H](c2ccc(Br)cc2)C(C(C)=O)=C1C | inconclusive: 36.4% |
| CCCOC(=O)c1ccc(NS(=O)(=O)c2cccs2)cc1 | inconclusive: 46.3% |
| COc1cc2c(cc1OC)C(C1C(=O)CCCC1=O)N(C(=O)CCl)CC2 (stereo not given) | inconclusive: 44.1% |
| CCn1c(SCC(=O)NC2CCS(=O)(=O)C2)nnc1-c1ccccc1 (stereo not given) | inconclusive: 36.9% |
| CCc1c(C#N)c(SCCC(=O)Nc2cccc(OC)c2)nc2c1C(=O)CC(C)(C)C2 | inactive: -3.29% |
| CN1CCCC1CCNC1C2CC3CC(C2)CC1C3 (stereo not given) | inconclusive: 39.6% |
| Cc1cc(Cl)nc(Cl)c1C(=O)NC(=O)NCCC(C)C | inconclusive: 41.2% |
| CCCc1cc(=O)n2[nH]c(C)c(-c3ccccc3OC)c2n1 | inactive: -0.45% |
| O=C(N/N=C/c1ccco1)c1ccc(OCc2ccccc2)cc1 | inconclusive: 38.2% |
| Fc1ccc(C(CNC(=S)NC2CCCCC2)N2CCOCC2)cc1 (stereo not given) | inconclusive: 57.6% |
| CCNc1sc(C(=O)c2cccs2)c(N)c1-c1nc2ccccc2s1 | inconclusive: 28.2% |
| c1ccc2sc(N3CCN(Cc4nnnn4CC4CCCO4)CC3)nc2c1 (stereo not given) | inconclusive: 38.3% |
| Cc1cc(C)nc(NS(=O)(=O)c2ccc(NC(=O)c3cc(=O)c4ccccc4o3)cc2)n1 | inactive: -13.1% |
| CCOC(=O)/C=C1\SCC(=O)N1CC(=O)c1ccc[nH]1 | inconclusive: 34.7% |
| COc1ccc(CCNC(=O)N2CCOCC2)cc1 | inconclusive: 38% |

| SMILES | inhibition |
| --- | --- |
| CC1C(=O)C(C)C(c2ccco2)NC1c1ccco1 (stereo not given) | inconclusive: 60.6% |
| CC(=O)Nc1ccc(NC(=O)Nc2cccc(C)c2C)cc1 | inconclusive: 43.4% |
| O=C(C1CCCO1)N1CCN(Cc2nc3ccccc3c(=O)[nH]2)CC1 (stereo not given) | inconclusive: 39.3% |
| CC(C)(O)C#CC#CCN1CCOCC1 | inconclusive: 38% |
| CCOc1ccc2[nH]c(=O)c(CN(CCO)C(c3nnnn3C3CCCCC3)C(C)C)cc2c1 (stereo not given) | inconclusive: 40.8% |
| COC(=O)[C@@H](NC(=O)Nc1cc(Cl)ccc1C)C(C)C | inconclusive: 59.5% |
| C/C(N=Nc1nc2ccccc2s1)=N\Nc1ccccc1O | inconclusive: 41% |
| CC(C)(C)c1cc(/C=N/O)cc(C(C)(C)C)c1O | inconclusive: 34.3% |
| COc1ccc(C(=O)Nc2c(F)c(F)c(F)c(F)c2F)c(OC)c1 | inconclusive: 52.2% |
| O=C(OCc1cn([C@H]2CN(CC3CCCCC3)[C@@H](c3ccc(Cl)cc3)C[C@@H]2O)nn1)c1ccccc1 | inactive: -2.33% |
| CCOC(=O)c1c(-c2cccs2)csc1NC(=O)CNCCN1CCOCC1 | inconclusive: 37.8% |
| Cc1nonc1CN(C)C(=O)CC1C(=O)NCCN1Cc1ccc(F)c(F)c1 (stereo not given) | inconclusive: 50.6% |
| O=c1[nH]c(Cc2cccs2)nc2ccccc12 | inconclusive: 33.3% |
| O=C1C(=Cc2ccco2)CCC1=Cc1ccco1 | inactive: -4.11% |
| O=C(NCc1ccncc1)C1CCCN(S(=O)(=O)Cc2ccccc2)C1 (stereo not given) | inconclusive: 41.9% |
| CC(C)C(=O)Nc1cccc(NC(=O)c2ccc(Cl)cc2Cl)c1 | inconclusive: 45.7% |
| CC1CCN(C(=O)C2CCN(C(=O)c3cc4sccc4n3Cc3ccc(F)cc3)CC2)CC1 | inconclusive: 14.3% |
| CCCCCOc1ccc(C(=O)NCC(=O)NCC(=O)OCC)cc1 | inactive: 21.7% |
| COc1ccc(-c2csc(Nc3ccccn3)n2)cc1 | inconclusive: 58.9% |
| O=C(CN1CCN(S(=O)(=O)c2ccc(Cl)cc2)CC1)NCc1cccs1 | inactive: 0.29% |
| COc1ccc(S(=O)(=O)N2CCc3ccccc32)cc1C(=O)OCc1nnc(-c2ccccc2)o1 | inconclusive: 37.5% |
| CN(C)CCNC(=O)c1sc2cccc(F)c2c1Cl | inconclusive: 48.2% |
| Cc1ccc(-c2nnn(CCOc3cccc(Br)c3)n2)cc1 | inconclusive: 33.9% |

| SMILES | inhibition |
| --- | --- |
| CC1CCCCC1NC(=O)CCNS(=O)(=O)c1ccc2c(c1)CCC(=O)N2 (stereo not given) | inactive: 6.16% |
| O=C(Cn1cnc2ccccc21)Nc1cccc([N+](=O)[O-])c1 | inconclusive: 63.1% |
| CC(C(=O)N1CCCc2c1c(=O)oc1ccc(O)cc21)N1CCc2ccccc2C1 (stereo not given) | inconclusive: 40.1% |
| Cc1ccc(N(CC(=O)NC2CCCCCC2)S(=O)(=O)c2c(C)nn(C)c2C)cc1 | inconclusive: 59.9% |
| O=C(O)c1cccc(N/N=C/c2ccc(OC(F)(F)F)cc2)c1 | inactive: 0.25% |
| CCOC(=O)c1c(/N=C/N(C)C)sc(C)c1C | inactive: -7.57% |
| O=C(Nc1ccccc1)Nc1c(F)cccc1F | inconclusive: 58.2% |
| Cc1cc(C(=O)N2CCOCC2)ccc1[N+](=O)[O-] | inconclusive: 50.3% |
| COc1ccc(C(=O)CCN2CCN(c3ccccc3F)CC2)cc1 | inconclusive: 40.2% |
| CCOC(=O)CC1C(=O)NCCN1S(=O)(=O)c1ccc(Cl)c(Cl)c1 (stereo not given) | inconclusive: 34.4% |
| CN(C)c1ccc(C2(O)C(=O)c3ccccc3C2=O)cc1 | inconclusive: 38.3% |
| CC1=NN(c2ccc(C)cc2)C(=O)/C1=C\C=C\c1ccccc1 | inactive: -3.38% |
| CC(=O)N1CCCc2cc(S(=O)(=O)NC(C(=O)NCc3ccc(C)cc3)C(C)C)ccc21 (stereo not given) | inconclusive: 20.9% |
| CNC(=O)CSc1nnc(-c2ccncc2)n1Cc1ccccc1 | inconclusive: 37.3% |
| Cn1c(=O)c2[nH]c(-c3cccnc3)nc2n(C)c1=O | inconclusive: 36.9% |
| COc1ccc(OC)c(C(=O)/C=C/c2cccnc2)c1 | inconclusive: 37.6% |
| Cc1nn2c3ccccc3n(Cc3ccccc3)c2nc1=O | inconclusive: 39.6% |
| CCCCCCOc1ccc(OCC(O)CN2C(=O)NC(C)(C)C2=O)cc1 (stereo not given) | inconclusive: 7.31% |
| CN(CC(=O)O)Cc1nc2ccccc2[nH]1 | inconclusive: 37.7% |
| CCOC(=O)N1CCN(CC(=O)N2CCC(C(N)=O)CC2)CC1 | inconclusive: 39.4% |
| CC(C)CSc1nc2ccccc2n1CC(N)=O | inconclusive: 26.3% |
